log2 fold change data for 13 targets are collected here from the supplement of paper PMC10849652.

Amino acid sequences for entries named in this document (tags omitted). A change or cut given only in a name is not applied to a line headed by its entry.
UniProt Q02447: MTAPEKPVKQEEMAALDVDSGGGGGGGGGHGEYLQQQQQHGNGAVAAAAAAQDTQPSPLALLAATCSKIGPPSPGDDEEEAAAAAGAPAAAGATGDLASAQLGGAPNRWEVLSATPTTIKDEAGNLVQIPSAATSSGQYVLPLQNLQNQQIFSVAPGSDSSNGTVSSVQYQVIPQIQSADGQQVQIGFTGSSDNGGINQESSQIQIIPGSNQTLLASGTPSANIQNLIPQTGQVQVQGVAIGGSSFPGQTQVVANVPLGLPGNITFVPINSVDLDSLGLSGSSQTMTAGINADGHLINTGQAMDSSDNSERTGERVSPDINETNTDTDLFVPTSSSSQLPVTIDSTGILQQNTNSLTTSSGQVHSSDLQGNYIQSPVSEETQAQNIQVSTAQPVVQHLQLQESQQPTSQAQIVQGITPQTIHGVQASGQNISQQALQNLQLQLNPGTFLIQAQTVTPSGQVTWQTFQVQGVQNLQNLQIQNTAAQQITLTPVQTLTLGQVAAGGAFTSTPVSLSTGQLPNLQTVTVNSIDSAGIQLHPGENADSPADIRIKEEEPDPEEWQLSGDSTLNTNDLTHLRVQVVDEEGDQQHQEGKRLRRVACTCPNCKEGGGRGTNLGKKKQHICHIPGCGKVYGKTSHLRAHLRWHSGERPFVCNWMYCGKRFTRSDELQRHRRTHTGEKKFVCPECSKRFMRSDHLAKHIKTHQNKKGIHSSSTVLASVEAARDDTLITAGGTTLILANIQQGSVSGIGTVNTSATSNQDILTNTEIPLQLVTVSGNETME
UniProt Q8TAQ2, whole entry, looked up: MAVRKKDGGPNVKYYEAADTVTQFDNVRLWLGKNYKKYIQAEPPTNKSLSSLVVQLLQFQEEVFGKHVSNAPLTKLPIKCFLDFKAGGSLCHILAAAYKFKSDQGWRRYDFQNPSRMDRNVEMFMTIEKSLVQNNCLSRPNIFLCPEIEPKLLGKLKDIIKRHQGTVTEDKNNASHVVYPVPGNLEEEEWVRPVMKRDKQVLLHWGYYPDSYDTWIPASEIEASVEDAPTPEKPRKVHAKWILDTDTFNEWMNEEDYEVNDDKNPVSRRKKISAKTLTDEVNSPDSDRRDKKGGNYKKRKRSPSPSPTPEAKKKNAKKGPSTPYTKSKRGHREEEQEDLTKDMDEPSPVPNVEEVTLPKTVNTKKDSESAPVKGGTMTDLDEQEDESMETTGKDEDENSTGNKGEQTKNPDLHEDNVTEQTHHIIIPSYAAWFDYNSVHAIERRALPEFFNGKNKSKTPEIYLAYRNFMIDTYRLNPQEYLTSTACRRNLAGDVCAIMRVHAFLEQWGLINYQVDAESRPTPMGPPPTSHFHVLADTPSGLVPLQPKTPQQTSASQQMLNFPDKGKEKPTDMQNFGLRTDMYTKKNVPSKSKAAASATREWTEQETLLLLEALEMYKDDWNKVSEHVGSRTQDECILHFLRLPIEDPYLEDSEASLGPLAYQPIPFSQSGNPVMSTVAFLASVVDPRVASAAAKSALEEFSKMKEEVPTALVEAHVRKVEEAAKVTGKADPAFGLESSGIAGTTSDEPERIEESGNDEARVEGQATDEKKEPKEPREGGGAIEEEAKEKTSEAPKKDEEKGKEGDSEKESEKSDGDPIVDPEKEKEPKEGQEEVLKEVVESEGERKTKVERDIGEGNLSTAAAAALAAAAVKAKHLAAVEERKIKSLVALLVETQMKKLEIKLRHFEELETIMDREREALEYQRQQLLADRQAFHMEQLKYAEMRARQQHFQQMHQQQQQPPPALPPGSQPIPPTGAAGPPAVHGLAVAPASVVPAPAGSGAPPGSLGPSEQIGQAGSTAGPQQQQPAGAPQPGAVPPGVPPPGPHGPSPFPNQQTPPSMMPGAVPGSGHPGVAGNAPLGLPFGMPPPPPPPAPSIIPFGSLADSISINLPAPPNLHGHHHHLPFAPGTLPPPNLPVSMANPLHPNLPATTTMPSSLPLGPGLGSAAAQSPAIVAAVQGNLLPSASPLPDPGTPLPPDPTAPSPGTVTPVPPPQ
UniProt O60271: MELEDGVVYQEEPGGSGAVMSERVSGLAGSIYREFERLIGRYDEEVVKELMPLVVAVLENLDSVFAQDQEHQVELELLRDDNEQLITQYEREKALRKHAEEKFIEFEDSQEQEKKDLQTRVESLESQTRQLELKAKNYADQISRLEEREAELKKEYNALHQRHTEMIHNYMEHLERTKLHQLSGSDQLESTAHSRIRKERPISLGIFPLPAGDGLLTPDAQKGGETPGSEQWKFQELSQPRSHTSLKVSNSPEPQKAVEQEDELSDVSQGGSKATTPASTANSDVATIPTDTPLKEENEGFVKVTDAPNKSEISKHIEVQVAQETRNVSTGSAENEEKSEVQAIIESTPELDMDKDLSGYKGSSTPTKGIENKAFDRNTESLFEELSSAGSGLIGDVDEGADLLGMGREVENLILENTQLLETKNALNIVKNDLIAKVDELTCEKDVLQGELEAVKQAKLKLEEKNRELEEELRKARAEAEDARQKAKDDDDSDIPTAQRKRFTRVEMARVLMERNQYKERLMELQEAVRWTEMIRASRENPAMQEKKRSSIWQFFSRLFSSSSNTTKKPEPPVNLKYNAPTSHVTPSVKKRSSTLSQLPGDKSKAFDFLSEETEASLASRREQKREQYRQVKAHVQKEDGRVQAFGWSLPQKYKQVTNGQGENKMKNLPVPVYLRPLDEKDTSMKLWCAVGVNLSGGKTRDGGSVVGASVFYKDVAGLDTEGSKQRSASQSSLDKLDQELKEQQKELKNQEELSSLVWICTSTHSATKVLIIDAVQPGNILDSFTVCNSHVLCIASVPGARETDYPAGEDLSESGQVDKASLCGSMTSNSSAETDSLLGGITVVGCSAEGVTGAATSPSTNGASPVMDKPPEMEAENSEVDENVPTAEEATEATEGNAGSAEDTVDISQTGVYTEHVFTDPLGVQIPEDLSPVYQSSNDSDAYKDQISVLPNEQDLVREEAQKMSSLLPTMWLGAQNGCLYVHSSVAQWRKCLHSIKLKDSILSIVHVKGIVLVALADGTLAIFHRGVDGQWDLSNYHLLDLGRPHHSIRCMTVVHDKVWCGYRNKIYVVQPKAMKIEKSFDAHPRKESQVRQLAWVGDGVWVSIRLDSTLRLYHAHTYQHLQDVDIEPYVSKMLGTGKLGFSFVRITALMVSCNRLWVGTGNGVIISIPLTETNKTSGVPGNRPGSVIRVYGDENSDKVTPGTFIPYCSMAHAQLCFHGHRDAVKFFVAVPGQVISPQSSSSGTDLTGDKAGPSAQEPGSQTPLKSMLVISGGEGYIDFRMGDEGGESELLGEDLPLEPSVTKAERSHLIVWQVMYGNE
UniProt Q9NWM0: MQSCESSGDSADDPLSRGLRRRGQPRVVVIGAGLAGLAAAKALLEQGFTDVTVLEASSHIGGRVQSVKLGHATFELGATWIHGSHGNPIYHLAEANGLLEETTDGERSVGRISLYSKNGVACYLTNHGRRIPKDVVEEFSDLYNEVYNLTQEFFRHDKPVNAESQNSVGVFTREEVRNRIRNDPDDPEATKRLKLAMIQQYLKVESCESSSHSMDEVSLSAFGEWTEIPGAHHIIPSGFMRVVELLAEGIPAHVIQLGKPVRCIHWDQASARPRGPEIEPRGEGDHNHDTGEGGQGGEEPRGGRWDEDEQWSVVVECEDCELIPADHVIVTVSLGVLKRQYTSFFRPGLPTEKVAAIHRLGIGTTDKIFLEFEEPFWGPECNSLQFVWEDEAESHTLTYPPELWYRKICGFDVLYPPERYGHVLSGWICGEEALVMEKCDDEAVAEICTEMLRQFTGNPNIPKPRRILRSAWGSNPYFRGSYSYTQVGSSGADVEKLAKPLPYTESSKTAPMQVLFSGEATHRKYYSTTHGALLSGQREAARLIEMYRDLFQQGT
UniProt Q8TEQ0: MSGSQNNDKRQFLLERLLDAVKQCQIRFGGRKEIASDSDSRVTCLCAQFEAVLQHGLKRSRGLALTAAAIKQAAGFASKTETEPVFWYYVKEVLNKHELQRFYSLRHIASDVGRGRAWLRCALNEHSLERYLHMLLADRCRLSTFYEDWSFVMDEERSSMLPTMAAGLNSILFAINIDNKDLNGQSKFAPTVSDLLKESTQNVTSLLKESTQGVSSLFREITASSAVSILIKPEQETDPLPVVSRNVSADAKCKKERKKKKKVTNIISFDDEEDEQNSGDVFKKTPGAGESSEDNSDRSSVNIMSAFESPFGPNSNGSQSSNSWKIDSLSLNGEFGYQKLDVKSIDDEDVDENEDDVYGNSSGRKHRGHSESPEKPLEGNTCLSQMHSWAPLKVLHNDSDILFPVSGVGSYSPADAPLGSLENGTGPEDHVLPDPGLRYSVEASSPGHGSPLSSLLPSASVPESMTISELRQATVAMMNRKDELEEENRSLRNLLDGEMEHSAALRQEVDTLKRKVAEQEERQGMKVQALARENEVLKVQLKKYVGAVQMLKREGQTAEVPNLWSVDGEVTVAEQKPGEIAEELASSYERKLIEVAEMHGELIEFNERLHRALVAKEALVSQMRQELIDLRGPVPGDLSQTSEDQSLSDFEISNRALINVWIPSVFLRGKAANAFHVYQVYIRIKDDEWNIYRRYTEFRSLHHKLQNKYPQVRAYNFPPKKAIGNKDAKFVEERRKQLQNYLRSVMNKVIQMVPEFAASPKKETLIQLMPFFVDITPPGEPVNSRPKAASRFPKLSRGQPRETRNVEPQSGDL
UniProt Q8WV41: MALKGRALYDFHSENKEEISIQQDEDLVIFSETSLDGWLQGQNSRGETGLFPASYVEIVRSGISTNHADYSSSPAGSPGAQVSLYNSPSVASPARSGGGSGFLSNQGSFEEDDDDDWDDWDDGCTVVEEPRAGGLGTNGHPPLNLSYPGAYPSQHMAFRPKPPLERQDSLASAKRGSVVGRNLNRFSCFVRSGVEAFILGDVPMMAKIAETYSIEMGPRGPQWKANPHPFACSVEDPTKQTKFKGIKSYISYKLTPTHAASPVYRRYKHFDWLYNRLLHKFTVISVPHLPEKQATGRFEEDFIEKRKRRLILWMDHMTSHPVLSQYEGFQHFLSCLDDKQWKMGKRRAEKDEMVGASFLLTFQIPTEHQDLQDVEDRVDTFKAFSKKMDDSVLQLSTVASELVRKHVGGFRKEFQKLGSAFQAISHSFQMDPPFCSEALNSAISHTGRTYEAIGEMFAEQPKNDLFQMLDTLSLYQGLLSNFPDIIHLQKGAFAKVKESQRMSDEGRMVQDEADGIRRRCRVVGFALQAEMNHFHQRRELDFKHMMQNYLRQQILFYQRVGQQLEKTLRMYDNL
UniProt Q92485: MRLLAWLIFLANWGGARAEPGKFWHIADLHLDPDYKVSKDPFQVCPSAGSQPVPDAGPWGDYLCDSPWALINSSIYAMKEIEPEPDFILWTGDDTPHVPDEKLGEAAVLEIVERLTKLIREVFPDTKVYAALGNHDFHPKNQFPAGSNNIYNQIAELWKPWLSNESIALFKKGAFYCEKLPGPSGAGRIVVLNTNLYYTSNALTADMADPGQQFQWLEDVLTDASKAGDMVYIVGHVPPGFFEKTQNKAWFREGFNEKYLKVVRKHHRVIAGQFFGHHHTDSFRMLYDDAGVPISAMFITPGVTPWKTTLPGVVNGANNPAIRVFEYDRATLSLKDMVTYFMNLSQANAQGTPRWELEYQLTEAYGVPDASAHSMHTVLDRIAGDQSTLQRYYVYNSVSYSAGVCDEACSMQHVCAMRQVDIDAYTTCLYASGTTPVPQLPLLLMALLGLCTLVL
UniProt Q6STE5, whole entry, looked up: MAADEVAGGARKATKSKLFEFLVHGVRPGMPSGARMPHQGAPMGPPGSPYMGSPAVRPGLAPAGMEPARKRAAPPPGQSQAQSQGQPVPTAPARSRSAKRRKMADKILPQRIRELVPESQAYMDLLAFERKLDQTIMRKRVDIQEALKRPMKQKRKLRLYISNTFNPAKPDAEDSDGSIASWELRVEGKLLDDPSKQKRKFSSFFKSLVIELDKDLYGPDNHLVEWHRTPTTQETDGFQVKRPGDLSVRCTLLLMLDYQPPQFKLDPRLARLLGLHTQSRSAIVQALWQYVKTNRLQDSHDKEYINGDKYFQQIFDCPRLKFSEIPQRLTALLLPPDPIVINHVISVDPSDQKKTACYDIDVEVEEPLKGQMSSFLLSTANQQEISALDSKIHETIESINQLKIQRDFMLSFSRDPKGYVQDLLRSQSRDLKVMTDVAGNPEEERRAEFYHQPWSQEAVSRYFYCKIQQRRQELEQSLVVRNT

Some of the results follow.

Assay in all cases: log2 fold change, soluble protein after heating vs DMSO (PISA); higher = thermal stabilisation; K562 lysate, 10 uM; active = over 0.2 and 3.5 SD of the protein, either way, in both replicates (recomputed)
Compound in one test: O=C(CCCCCCC(=O)Nc1ccccc1)NO [vorinostat]
In short, it runs like this:
(§1)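 Values give the log-two fold change in thermal stability against solvent controls, from duplicates. Crude K562 extract at 1 mg/mL protein, made by dounce homogenisation in PBS pH 7.4 with 1 mM MgCl2, was treated with 10 μM compound for 30 min. After 3 min heating across 48°C-58°C, aliquots were pooled, adjusted to 0.5% NP-40 at 4°C and centrifuged at 21,000xg for 90 min. The supernatant was measured by TMTpro 16plex LC-MS/MS with channel sums equalised.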

Compound in another test: O=C(O)c1ccc2c(c1)nc(Nc1cccc(Cl)c1)c1ccncc12 [silmitasertib]
In short, it runs like this: as §1

Compound in test [1]: O=C1NC(=O)C(c2cnc3ccccn23)=C1c1cn2c3c(cc(F)cc13)CN(C(=O)N1CCCCC1)CC2
In short, it runs like this:
as §1

Compound in a further test: c1cn2cc(-c3ccc4cn[nH]c4c3)nc(Nc3ccc(N4CCOCC4)cc3)c2n1 [entospletinib]
Summed up: as §1

Compound in test [2]: NCC(=O)Nc1ccc(-n2nc(C(F)(F)F)cc2-c2ccc3c(ccc4ccccc43)c2)cc1
In short, it runs like this:
as §1

With SP3 (UniProt Q02447), the log2 fold change in the test with vorinostat is inactive: 0.082; with silmitasertib, inactive: -0.029; in test [1] it was inactive: 0.015; with entospletinib it was inactive: 0.039.
For SMARCC2 isoform 3 (UniProt Q8TAQ2), the log2 fold change in test [1] is inactive: -0.054.
Regarding SNAP47 (UniProt Q5SQN1), the log2 fold change was inactive: -0.328 with vorinostat, inactive: 0.01 with silmitasertib, inactive: 0.018 in test [1] and inactive: 0.066 with entospletinib.
As for SPAG9 isoform 4 (UniProt O60271), the log2 fold change in test [2] is inactive: 0.063; in test [1], inactive: -0.031; with entospletinib it was inactive: 0.042.
Consider SMARCA4 isoform 4 (UniProt P51532), for which the log2 fold change with vorinostat is inactive: 0.166; with silmitasertib, inactive: -0.198; in test [1], inactive: 0.119; with entospletinib, inactive: -0.083.
For SOHLH2 isoform 3 (UniProt Q9NX45), the log2 fold change is inactive: 0.041 with vorinostat, inactive: -0.122 in the test with silmitasertib, inactive: -0.103 in test [1] and inactive: -0.016 with entospletinib.
With SNX13 (UniProt Q9Y5W8), the log2 fold change with vorinostat was inactive: 0.066; in the test with silmitasertib it was inactive: 0.234; in test [1] it was inactive: -0.063.
With SMOX isoform 6 (UniProt Q9NWM0), the log2 fold change was inactive: 0.074 with vorinostat and inactive: -0.198 with silmitasertib.
Turning to SNX29 (UniProt Q8TEQ0), the log2 fold change was inactive: -0.339 with vorinostat, inactive: 0.03 with silmitasertib, inactive: 0.092 in test [1] and inactive: -0.014 with entospletinib.
Consider SMPD4 isoform 4 (UniProt Q9NXE4), for which the figures for the log2 fold change (in test [2]; with entospletinib) were inactive: -0.09 and inactive: -0.133, respectively.
Consider SNX33 (UniProt Q8WV41), for which the log2 fold change in test [1] was inactive: 0.013.
SMPDL3B (UniProt Q92485): the log2 fold change in test [2] was inactive: 0.05; in test [1], inactive: -0.071; in the test with entospletinib, inactive: -0.255.
With SMARCD3 (UniProt Q6STE5), the values for the log2 fold change in the test with vorinostat and with silmitasertib were inactive: -0.092 and inactive: -0.002, respectively.
